Results as given in US5889148A, “Antibiotic peptides” (priority 1995, dated 1999).
Values after ≈ are worked out from the molar mass of the structure shown. Part of at least one peptide drawing is inferred or uncertain, most often the ends. Non-standard residues stand in square brackets, D forms with d. Residues, ends and D or L forms follow the SMILES beside them. No end group written: not given here.

Tests used:
[1] = test system: Staphylococcus aureus (ATCC 6538); assay: MIC test, antibacterial activity; format: cell-based
Procedure: (§1) Antibacterial and antifungal activities of the peptides were determined by employing MIC test as follows:
(§2) To determine antifungal activity, a test organism Candida albicans (ATCC 36232) was cultured on Sabouraud dextrose agar plate for 24 to 48 hrs, and colonies thus grown were suspended on Sabouraud dextrose medium(Gibco, USA) to have O.D.530 =0.5(3×10^6 cells) and further diluted with 100-fold to have O.D.530 =0.005(3×10^4 cells). 100 μl of Candida albicans culture thus prepared was pipetted on 96-well microplates which had already contained 100 μl of a serially diluted peptide solution.
Antibacterial activity of peptide was determined analogously as above, with an exception that Staphylococcus aureus (ATCC 6538) selected as a test organism was cultured on M-3 medium(Gibco, USA) at 37° C. and cell number was adjusted to 2×10^8 cells before 100-fold dilution.

[2] = test system: Candida albicans (ATCC 36232); assay: MIC test, antifungal activity; format: cell-based
Procedure: as §1, §2

[3] = Table 11, enantiomer, retro-inverso, D-amino acid derivatives of M22
[4] = Table 8, TEDFK derivatives of group 1
[5] = Table 1, peptide fragments of Tenecin
[6] = Table 9, TEDFK derivatives of group 2

CC[C@H](C)[C@H](NC(=O)[C@H](Cc1ccc(O)cc1)NC(=O)[C@H](CCCCN)NC(=O)[C@@H](N)CCCCN)C(=O)N[C@@H](CCCCN)C(=O)N[C@@H](CCCCN)C(=O)N[C@H](C(=O)N[C@H](Cc1ccccc1)C(=O)N[C@@H](C(=O)N[C@@H](Cc1ccccc1)C(=O)N[C@@H](CCCCN)C(N)=O)C(C)C)C(C)C [M22-31, KKYIKKVfvFK--NH2] (H-KKYIKKV[dF][dV]FK-NH2)
MIC S. aureus [1, 3]: 3.16 µg/mL (≈ 2.21 µM) | MIC C. albicans [2, 3]: 3.15 µg/mL (≈ 2.21 µM)

CC[C@H](C)[C@H](NC(=O)[C@H](Cc1ccc(O)cc1)NC(=O)[C@H](CCCCN)NC(=O)[C@@H](N)CCCCN)C(=O)N[C@@H](CCCCN)C(=O)N[C@@H](CCCCN)C(=O)N[C@H](C(=O)N[C@@H](Cc1ccccc1)C(=O)N[C@@H](C(=O)N[C@H](Cc1ccccc1)C(=O)N[C@@H](CCCCN)C(N)=O)C(C)C)C(C)C [M22-32, KKYIKKVFvfK--NH2] (H-KKYIKKVF[dV][dF]K-NH2)
MIC S. aureus [1, 3]: 3.15 µg/mL (≈ 2.21 µM) | MIC C. albicans [2, 3]: 3.12 µg/mL (≈ 2.19 µM)

CC(C)[C@H](NC(=O)[C@H](Cc1c[nH]c2ccccc12)NC(=O)[C@@H](NC(=O)[C@H](CCCNC(=N)N)NC(=O)[C@H](CCCCN)NC(=O)CNC(=O)[C@H](CC(N)=O)NC(=O)[C@H](CS)NC(=O)[C@H](Cc1ccc(O)cc1)NC(=O)[C@H](Cc1ccccc1)NC(=O)[C@@H](N)CCCCN)C(C)C)C(=O)N[C@@H](CS)C(=O)N[C@@H](CCCNC(=N)N)C(N)=O [M27, KFYCNGKRVWVCR--NH2] (H-KFYCNGKRVWVCR-NH2)
MIC S. aureus [1, 4]: 6.35 µg/mL (≈ 3.83 µM) | MIC C. albicans [2, 4]: 6.25 µg/mL (≈ 3.77 µM)

CC(C)[C@H](NC(=O)[C@H](CS)NC(=O)[C@@H](NC(=O)[C@H](CCCNC(=N)N)NC(=O)[C@H](CCCCN)NC(=O)CNC(=O)[C@H](CC(N)=O)NC(=O)[C@H](CS)NC(=O)[C@H](Cc1ccc(O)cc1)NC(=O)[C@H](Cc1ccccc1)NC(=O)[C@@H](N)CCCCN)C(C)C)C(=O)N[C@@H](Cc1c[nH]c2ccccc12)C(=O)N[C@@H](CCCNC(=N)N)C(N)=O [M28, KFYCNGKRVCVWR--NH2] (H-KFYCNGKRVCVWR-NH2)
MIC S. aureus [1, 4]: 12.7 µg/mL (≈ 7.66 µM) | MIC C. albicans [2, 4]: 12.5 µg/mL (≈ 7.54 µM)

CC(C)C[C@H](NC(=O)[C@H](CS)NC(=O)[C@H](Cc1c[nH]cn1)NC(=O)[C@H](C)NC(=O)[C@H](C)NC(=O)[C@H](CS)NC(=O)[C@H](C)NC(=O)[C@H](C)NC(=O)[C@H](CC(=O)O)NC(=O)[C@@H](N)CC(N)=O)C(=O)N[C@@H](Cc1ccccc1)C(=O)N[C@@H](CCCNC(=N)N)C(=O)NCC(=O)N[C@@H](CCCNC(=N)N)C(=O)N[C@@H](CO)C(=O)NCC(=O)NCC(N)=O [TEB, NDAACAAHCLFRGRSGG--NH2] (H-NDAACAAHCLFRGRSGG-NH2)
MIC S. aureus [1, 5]: > 500 µg/mL | MIC C. albicans [2, 5]: > 100 µg/mL

CC(C)C[C@H](NC(=O)[C@H](CS)NC(=O)[C@H](Cc1c[nH]cn1)NC(=O)[C@H](C)NC(=O)[C@H](C)NC(=O)[C@H](CS)NC(=O)[C@H](C)NC(=O)[C@H](C)NC(=O)[C@H](CC(=O)O)NC(=O)[C@H](CC(N)=O)NC(=O)[C@H](CC(C)C)NC(=O)[C@H](CCCCN)NC(=O)[C@@H](NC(=O)CNC(=O)[C@H](CCCCN)NC(=O)[C@H](C)NC(=O)[C@H](CCC(=O)O)NC(=O)[C@@H](NC(=O)[C@H](CO)NC(=O)[C@@H](N)CC(C)C)C(C)C)C(C)C)C(N)=O [TEO] (H-LSVEAKGVKLNDAACAAHCL-NH2)
MIC S. aureus [1, 5]: > 500 µg/mL | MIC C. albicans [2, 5]: > 100 µg/mL

KKKIKKVFVFK-NH2 [M24, KKKIKKVFVFK--NH2]
MIC S. aureus [1, 6]: 3.16 µg/mL | MIC C. albicans [2, 6]: 3.12 µg/mL

KKYIKKVFVFK-NH2 [M22, KKYIKKVFVFK--NH2]
MIC S. aureus [1, 6]: 3.16 µg/mL | MIC S. aureus [1, 3]: 3.16 µg/mL | MIC C. albicans [2, 6]: 3.12 µg/mL | MIC C. albicans [2, 3]: 3.12 µg/mL

KKYIKKYIKK-NH2 [M35, KKYIKKYIKK--NH2]
MIC S. aureus [1, 6]: 12.7 µg/mL | MIC C. albicans [2, 6]: 12.5 µg/mL

KVFVFKFVFVK-NH2 [M36, KVFVFKFVFVK--NH2]
MIC S. aureus [1, 6]: 6.25 µg/mL | MIC C. albicans [2, 6]: 6.25 µg/mL

KYIKKVFVFK-NH2 [M23, KYIKKVFVFK--NH2]
MIC S. aureus [1, 6]: 3.16 µg/mL | MIC C. albicans [2, 6]: 3.12 µg/mL
